Laboratory results: US20240261263A1, “COMPOUNDS AND METHODS TO SENSITIZE CANCER CELLS TO TYROSINE KINASE INHIBITORS” (Da Zen Theranostics, Inc., priority 2016, published 2024)

Tested on: A549/DDP (Cisplatin Resistant)
Assay: Crystal Violet cell proliferation assay, A549/DDP
Details: Homo sapiens, 72 h, read-out: IC50 of TKIs A549/DDP, TKI + 8 uM DZ1-SIM Amide, 72 h

- IC50: 1200 nM
Compound: COc1cc2ncnc(Nc3ccc(F)c(Cl)c3)c2cc1OCCCN1CCOCC1 [Gefitinib]
